PubChem BioAssay AID493246 – Drosophila RNAi Screening Center, 2011
The screen tested about 21,000 reagents; shown is a random part of those that have a named target and a result. Of all reagents, 429 (2%) were called active. 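Values are raw and not normalised between plates; calls rest on per-plate z-scores that were not deposited.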 Entries without a mark were called inactive. Reagents against one gene are numbered here. No sequences are given here. The record does not give: the amount of reagent, the time to read-out.

- Screen: 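Genome-wide search for dsRNAs that reduce cell number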 (primary screen)
- Cells: Drosophila Kc and S2R+ cells
- Reagents: long dsRNA against Drosophila genes
- Read-out: 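Cell number per well after knock-down, printed as raw plate values; calls were based on per-plate z-scores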
- Reading the numbers: Kc cell number and S2R+ cell number: higher = more cells remaining
- Active means: 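Counted as a hit if cell number falls by a z-score of at least 3 within its plate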

Target gene	reagent	Kc cell number, rep 1	Kc cell number, rep 2	S2R+ cell number, rep 1	S2R+ cell number, rep 2
unpg	1	1.48e6	1.52e6	1.24e6	1.32e6
CG7791	1	1.35e6	1.41e6	1.10e6	1.15e6
CG10918	1	1.66e6	1.64e6	1.05e6	1.22e6
CG11600	1	1.68e6	1.82e6	1.31e6	1.41e6
CG1924	1	1.64e6	1.71e6	1.10e6	1.25e6
park	1	1.51e6	1.55e6	1.46e6	1.51e6
CG6071	1	1.45e6	1.51e6	1.17e6	1.34e6
CG14100	1	1.24e6	1.26e6	1.24e6	1.34e6
CG14160	1	1.62e6	1.61e6	1.42e6	1.54e6
to	1	1.84e6	1.70e6	1.12e6	1.23e6
CG4367	1	1.43e6	1.41e6	1.09e6	1.22e6
IFT57	1	1.49e6	1.37e6	1.12e6	1.30e6
CG13527	1	1.49e6	1.60e6	1.23e6	1.33e6
Rchy1	1	1.48e6	1.37e6	1.00e6	1.10e6
CG7492	1	1.42e6	1.57e6	1.25e6	9.46e5
CG8461	1	1.84e6	1.90e6	1.45e6	1.48e6
CG6125	1	1.48e6	1.49e6	1.09e6	1.25e6
DEF8	1	1.36e6	1.40e6	1.26e6	1.22e6
Jhedup	1	1.58e6	1.58e6	1.12e6	1.25e6
kay	1	1.05e6	1.60e6	1.07e6	1.15e6
kay	2	1.65e6 (active)	1.66e6	7.20e5	7.24e5
kay	3	5.78e5		7.79e5	
Srrm234	1	1.49e6	1.48e6	9.28e5	1.17e6
Srrm234	2	1.27e6	1.32e6	1.18e6	1.18e6

Individual results from the entries so far:
Under “S2R+ cell number, rep 1”, Srrm234 #1 shows 9.28e5
Under “S2R+ cell number, rep 1”, IFT57 shows 1.12e6
Under “S2R+ cell number, rep 1”, Jhedup shows 1.12e6
